Laboratory results published in paper PMC11277421, “Advancing Cardiovascular Drug Screening Using Human Pluripotent Stem Cell-Derived Cardiomyocytes” (International Journal of Molecular Sciences, 2024).

Test system: iPSC-CMs
Test: Cardiotoxicity test: spontaneous calcium oscillations (FLIPR, EarlyTox dye)
Settings: concentration-dependent
Protocol: Spontaneous calcium oscillations in iPSC-CMs were measured using the FLIPR system in the absence or presence of test compounds. […] This approach allowed the evaluation of proarrhythmic effects of drug candidates based on calcium dynamics occurring within the iPSC-CMs.
Figure 4 Utilization of hPSC-CMs as a platform for high-throughput testing of the cardiotoxicity and effectiveness of drugs. Spontaneous calcium oscillations in iPSC-CMs were measured using the FLIPR system in the absence or presence of test compounds. (a,b) Cardiotoxicity test. […] (b) Testing of the compounds known for their adverse effects in humans. […] (c,d) Efficacy test. […]
Spontaneous calcium transients in contracting CMs were monitored using the FLIPR Tetra® High Throughput Cellular Screening System (Molecular Devices). hPSC-CMs were plated on the Matrigel-coated wells (8 × 10^4 cells per well) of a 96-well plate. Confluency was monitored after 2 days, and the strong synchronous contractions of cells were confirmed prior to the cardiac calcium oscillation assay. […] Calcium oscillations were measured at 20, 40, and 60 min after treatment. The acquired data were analyzed for beat frequency and peak width at 10% amplitude using ScreenWorks Peak Pro software version 2.0 (Molecular Devices).

Cc1cccc(CCN2CCC(C(=O)c3ccc(NS(C)(=O)=O)cc3)CC2)n1 [E-4031]
effect on beating rate: decrease in the beating rate
